In publication PMC12040169 (PLOS Biology, 2025):
The list shows a part of the results.

What follows are molecules tested on T1, CTL2-GFP (C. trachomatis L2/434/Bu, GFP-expressing). Conditions: bulk GFP, single well; 28.5 h, 10 µM; inhibitor.
T1 construct: L2/434/Bu, GFP-expressing
Parameters: species or system HeLa; Intracellular C. trachomatis growth in HeLa cells, bulk GFP fluorescence relative to DMSO

Row | Structure (SMILES) | % of control remaining [%]
1 | COC(=O)C1C(=O)Oc2ccc3ccccc3c2C1C(C)C(=O)c1ccc(Br)cc1 (stereo not shown) [CBK266126] | 129.635
2 | CN1CCC(Oc2ncccc2OCc2ccccc2)CC1 [CBK036311] | 101.672
3 | O=[N+]([O-])c1cc(S(=O)(=O)Nc2ccc3cn[nH]c3c2)ccc1Cl [CBK067160] | 109.677
4 | OC1(c2cccnc2F)CCN(Cc2ccc(F)cc2F)CC1 [CBK284369] | 123.555
5 | COC(=O)c1csc2nc(NCCCO)sc12 [CBK058832] | 105.189
6 | Cc1noc(C)c1CN(C)C(=O)NC1CCCc2c1cnn2CCO (stereo not shown) [CBK306283] | 112.901
7 | COC[C@@H]1CCCN1S(=O)(=O)c1ccc(OC(F)(F)F)cc1 [CBK044338] | 128.977
8 | Cc1noc(C)c1NC(=O)c1ccc2nccnc2c1 [CBK200221] | 118.569
9 | Clc1cc(NCc2ccc(Cl)c(Cl)c2)n2nccc2n1 [CBK037043] | 89.4427
10 | Cn1cc(CCNC(=O)Nc2ccc(CN3CCCC3=O)cc2)cn1 [CBK305410] | 70.2546
11 | CO[C@]1(c2cccc(C)c2)CC[C@@H](N2CCCCC2)CC1 [CBK015909G] | 117.066
12 | CN(Cc1ccc(-c2ccc(S(C)(=O)=O)cc2)nc1)C1CCN(C(=O)c2cc(Cl)ccc2Cl)CC1 [CBK165943T] | 97.5099
13 | O=C(CN1C(=O)c2ccc(Br)cc2C1=O)OCc1ccc(S(=O)(=O)N2CCOCC2)cc1 [CBK267505] | 154.235
14 | c1coc(-c2nnc(Nc3nc4cc5c(cc4s3)OCO5)o2)c1 [CBK287492] | 143.312
15 | Cc1sc(NC(=O)c2cc(-c3ccncc3)nc3ccc(Cl)cc23)c(C#N)c1C [CBK267742] | 129.68
16 | Cc1cc(NS(=O)(=O)c2ccc(NC(=O)c3ccc(C(C)(C)C)c(Br)c3)cc2)no1 [CBK265629] | 69.2808
17 | CCn1c(CC2CCN(C(=O)CCn3nnnc3C)CC2)nn(C)c1=O [CBK307400] | 123.228
18 | CC1CCc2n[nH]c(C(=O)NCCCC3CCOC3)c2C1 (stereo not shown) [CBK283212] | 113.075
19 | CS(=O)(=O)NC1CCN(c2nc(C(=O)O)nc3ccccc23)CC1 [CBK304316N] | 126.533
20 | Cc1cc(C)n(CC(=O)N2CCCC2c2cc3cccnc3[nH]2)n1 (stereo not shown) [CBK285074] | 116.704
21 | CCC(C)(C)C1CCC(NC(=O)CSCCC(=O)O)CC1 (stereo not shown) [CBK296674] | 110.599
22 | COCc1cc(C)nc(NCCO)c1C#N [CBK262556] | 104.693
23 | COc1cc(NC(=O)NCc2cncn2CC(C)C)c2ncccc2c1 [CBK307182] | 138.773
24 | NC(=O)CN1CC2(CCN(Cc3cccc(C(F)(F)F)c3)CC2)c2ccccc21 [CBK126776] | 108.076
25 | Cc1ccc(NC(=O)CSc2nnc(COc3ccc(Cl)cc3Cl)o2)cc1Cl [CBK264113] | 121.823
26 | O=C(CSc1nccn1C1CC1)Nc1ccc(CN2CCOCC2)cc1 [CBK306071] | 143.913
27 | Cc1ncc(CN(C)C(=O)Nc2cccc(C(=O)N3CCOCC3)c2)s1 [CBK305984] | 130.037

Five of these compounds in a different format:
Row	Structure (SMILES)	% of control remaining [%]
1	COC(=O)C1C(=O)Oc2ccc3ccccc3c2C1C(C)C(=O)c1ccc(Br)cc1 (stereo not shown) [CBK266126]	129.635
2	CN1CCC(Oc2ncccc2OCc2ccccc2)CC1 [CBK036311]	101.672
3	O=[N+]([O-])c1cc(S(=O)(=O)Nc2ccc3cn[nH]c3c2)ccc1Cl [CBK067160]	109.677
4	OC1(c2cccnc2F)CCN(Cc2ccc(F)cc2F)CC1 [CBK284369]	123.555
5	COC(=O)c1csc2nc(NCCCO)sc12 [CBK058832]	105.189

Following part:

Row | Structure (SMILES) | % of control remaining [%]
28 | Cc1cc(C)nc(SCC(=O)Nc2cc(C(=O)O)cc([N+](=O)[O-])c2)n1 [CBK268937] | 142.329
29 | CC(C)(C)OC(=O)N1CCC(c2nc(-c3cccnc3)no2)CC1 [CBK304332] | 148.485
30 | CCn1c(SCC(=O)Nc2ccccc2OC)nnc1-c1ccc(N)cc1 [CBK265859] | 148.927
31 | COCCCn1c(=O)[nH]c2ncc(-c3ccc(C(=O)N4CCOCC4)cc3)nc21 [CBK064366] | 106.491
32 | COc1ccc(OC)c(-n2c(S)nnc2Cn2c(-c3ccccn3)nc3ccccc32)c1 [CBK269320] | 122.762
33 | COc1cc(NC(=O)CC2NC3CCCCC3NC2=O)cc(OC)c1OC (stereo not shown) [CBK270012] | 153.404
34 | Cc1cc(S(=O)(=O)Nc2ccc(C(C)(C)C)cc2)sc1C(=O)O [CBK297946] | 138.065
35 | Cc1ccc(C(=O)NCC(c2ccccc2Cl)N2CCOCC2)c(=O)[nH]1 (stereo not shown) [CBK305928] | 109.674
36 | CN1C(=O)c2ccc(NS(C)(=O)=O)cc2C1=O [CBK038158] | 102.981
37 | CCCC(=O)NC[C@H]1CC[C@H](c2ccnc3cc(C)nn32)CC1 [CBK283474] | 140.659
38 | COc1ccc(CCNC(=O)c2n[nH]c(=O)c3ccccc23)cc1OC [CBK270160] | 136.076
39 | COc1ccc2c(c1)CCC1(C)C2=C(C(=O)O)CC1O (stereo not shown) [CBK022814] | 145.703
40 | Brc1c(OCc2ccccc2)ccc2[nH]ccc12 [CBK160845] | 153.132
41 | CC(C)[C@H](CO)Nc1nc(-c2cccc(OC(F)(F)F)c2)cnc1N [CBK063957] | 188.632
42 | CC(NC(=O)c1ccc(=O)n(C)n1)c1ccc2c(c1)CCCC2 (stereo not shown) [CBK281416] | 134.872
43 | CCc1noc(C)c1C(=O)NCCN(C)C [CBK268118] | 123.163
44 | C=CCn1c(NCc2ccccc2NS(=O)(=O)c2ccc(C)cc2)nc2ccccc21 [CBK266393] | 176.687
45 | CN1C[C@@H](NS(C)(=O)=O)C[C@H]1c1nc(-c2ccc3ccccc3c2)no1 [CBK288859] | 119.137
46 | O=C(NCCn1nc(-c2ccco2)ccc1=O)C1CCCCC1 [CBK283743] | 105.747
47 | c1ccc(-c2cnc(C3CCCCC3)o2)cc1 [CBK008192] | 116.737
48 | OC(c1cccs1)C1CCN(Cc2ccc(-n3cncn3)cc2)CC1 (stereo not shown) [CBK306523] | 108.794
49 | CCN1CCCC1CNC(=O)c1ccc(C)nc1NCCCn1ccnc1 (stereo not shown) [CBK076382] | 100
50 | CCCCSc1nnc2c(n1)OC(/C=C/c1ccc([N+](=O)[O-])o1)Nc1ccccc1-2 (stereo not shown) [CBK262565] | 56.4429
51 | Cc1cccnc1C(c1ccc(F)cc1)N(C)C(=O)C1CCN(C(=O)OCc2ccccc2)CC1 (stereo not shown) [CBK060095] | 143.508
52 | Cc1noc([C@@H]2C[C@H](NS(=O)(=O)c3ccc(C#N)cc3)CN2C)n1 [CBK288874] | 139.968
53 | CSCCN1CCCC2(CCN(C(=O)c3ccoc3)C2)C1 (stereo not shown) [CBK132835] | 88.4929
54 | COc1ccc([N+](=O)[O-])c(Sc2cccs2)n1 [CBK002625] | 144.799

Row | Structure (SMILES) | % of control remaining [%]
55 | O=C1CC(Cl)Sc2sc3ccccc3c21 (stereo not shown) [CBK006551] | 117.107
56 | COc1cc(-c2cnc(N)c(N3CCC[C@@H]3CO)n2)cc(OC)c1OC [CBK063478] | 74.1177
57 | COc1ccc(-c2cc(=O)[nH]c(SCC(=O)Nc3ccc(C)cc3)n2)cc1 [CBK091867] | 113.509
58 | CC(=O)Nc1ccc(S(=O)(=O)Nc2cccc(-c3cn4cccnc4n3)c2)cc1 [CBK269125] | 122.447
59 | Cc1nn(C)cc1CN(Cc1ccc(F)cc1)CC1CCCO1 (stereo not shown) [CBK282472] | 135.256
60 | Clc1ccc(OCCOc2nccnc2N2CCNCC2)cn1 [CBK014049G] | 104.812
61 | COc1ccc([C@@]23CC[C@@H](NC(=O)c4ccc(-c5csnn5)cc4)C[C@@H]2N(C)CC3)cc1OC [CBK074256T] | 121.979
62 | Cc1ccc(COC(CN2CCCCCC2)CN2CCCCCC2)cc1 [CBK278236C] | 112.952
63 | COc1cccc2c3c([nH]c12)C1(CCN(CCc2scnc2C)CC1)NCC3 [CBK040058] | 94.3012
64 | Cn1cc(C(=O)N2CCCC(c3cc4ccccc4cn3)C2)cn1 (stereo not shown) [CBK285155] | 73.698
65 | O=C(CCSc1ccc(Cl)cc1)NCCc1ccccc1 [CBK263800] | 122.206
66 | Nc1ccccc1C(=O)NCc1ccncc1 [CBK057024] | 163.885
67 | O=[N+]([O-])c1ccccc1OCCCn1c2ccccc2c2ccccc21 [CBK264799] | 96.7015
68 | CNC(=S)Nc1ncn(Cc2cccc(F)c2)n1 [CBK288368] | 95.2319
69 | COc1ccc2[nH]cc(CCNC(=O)/C=C/c3ccc(C(C)C)cc3)c2c1 [CBK149639] | 68.7452
70 | Cc1ccc(C(=O)N2CCC(c3nn(C)c4ncccc34)CC2)s1 [CBK284988] | 91.6227
71 | COCc1nc(C(=O)Nc2ccc(NC(C)=O)cc2C(F)(F)F)cs1 [CBK306298] | 96.3531
72 | CCCc1oc(C(=O)O)cc1CN(CC)CC [CBK267943C] | 122.347
73 | O=C(NCc1ccccc1)c1ccc(NCc2ccccc2)c([N+](=O)[O-])c1 [CBK074547] | 69.2906
74 | O=C(CCc1ccc(F)cc1)N1CCC(CC(=O)N2CCN(c3ccccc3)CC2)CC1 [CBK286245] | 102.805
75 | O=C(N[C@H]1CCN2C(=O)c3cc(-c4ccsc4)ccc3NC(=O)[C@H]12)c1cccc(F)c1 [CBK289339] | 122.783
76 | CC(C)(C)c1ccc(-c2nnc(SCC(=O)c3ccc(F)cc3)o2)cc1 [CBK067988] | 100
77 | CCC(CC)(CC(=O)Nc1ccc2nc(C)sc2c1)C(=O)O [CBK297882] | 106.439
78 | NS(=O)(=O)c1ccc(CNC(=O)c2cc(-c3cccnc3)nc3ccc(Cl)cc23)cc1 [CBK267727] | 138.606
79 | CCNc1cc2ccccc2c(-c2cc(C(C)C)ccc2OC)n1 [CBK073777] | 84.5732
